PubChem BioAssay AID504444 (National Center for Advancing Translational Sciences (NCATS), 2011)
The whole screen tested about 360,000 compounds, of which about 7,500 (2.1%) were called active. This list was built around the results that the source calls inconclusive (neither active nor inactive); the mix of calls is not that of the screen. The call rests on the fitted dose curve; in most records, active means well fitted inhibition curve with a large enough effect; inconclusive means small, poorly fitted or top-dose-only effect, or effect the other way; inactive means flat fitted curve, though single readings scatter. Potencies of inconclusive entries are doubtful fits and often do not repeat.

Experiment: Nrf2 qHTS screen for inhibitors; further: nearly all actives have a fitted effect of over 60% in size
Details: A549 ARE-Fluc reporter, luciferase luminescence, 18-24 h; series mostly up to 46 µM
Outline: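 A549 ARE_Fluc cells (5000/well, 5% FBS OPTI-MEM) pre-incubated 2 h, then treated with compounds 18-24 h at 37C/5% CO2 in concentration-response. CellTiter-Fluor viability read first; BugLite luciferase luminescence after 15 min at room temperature gives Nrf2 activity.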
Potency means the concentration at half of the fitted maximal effect.

For `CSc1ccccc1NC(=O)Nc1ccc(F)c(Cl)c1`, which Potency is on record?
Its Potency is inconclusive: 2.59 µM [falling, partial curve, poor fit].

For `CCN(C(=O)c1ccc(S(=O)(=O)N2CCCCC2)cc1)C1CCS(=O)(=O)C1` (stereo not drawn), which Potency is on record?
Its Potency is inconclusive: 9.2 µM [activator, partial curve, poor fit].

With `O=C(CN1C(=O)S/C(=C\C=C\c2ccccc2)C1=O)NC1CCS(=O)(=O)C1` (stereo not drawn) as the compound, how does the Potency read?
Its Potency is inconclusive: 23.1 µM [activator, single point].

Which Potency does the source give for `CCN(CC)CCCNC(=O)c1ccc(N2CCCCC2)c(NS(=O)(=O)c2ccc(C)cc2)c1` here?
The Potency was inconclusive: 5.17 µM [activator, single point].

Which Potency does the source give for `Cc1ccc(N2C(=O)c3n[nH]c(C)c3C2c2ccccc2Cl)cc1` (stereo not drawn) here?
The Potency was inconclusive: 1.64 µM [falling, partial curve, poor fit].

Which Potency does the source give for `CC(=O)Nc1ccc(S(=O)(=O)N2CCN(Cc3cccc([N+](=O)[O-])c3)CC2)cc1` here?
The Potency was inconclusive: 10.3 µM [falling, partial curve].

For `CCN1C(=O)S/C(=C\c2ccc(N3CCOCC3)cc2C)C1=O`, which Potency is on record?
Its Potency is inconclusive: 23.1 µM [activator, partial curve].

With `COC(=O)C1=C(C(=O)OC)[C@@H]2N(C)c3ccccc3[C@@]23C[C@@H](C(=O)OC)N(C(=O)c2ccc(Br)cc2)C3=N1` as the compound, how does the Potency read?
The Potency was inconclusive: 32.6 µM [falling, single point].

For `COc1ccc(OCCNC(=O)CSc2ccc(C(F)(F)F)cc2[N+](=O)[O-])cc1`, which Potency is on record?
Its Potency is inconclusive: 5.8 µM [falling, partial curve, poor fit].

Which Potency does the source give for `Cc1ccc(-c2csc(/C(C#N)=C/Nc3ccc4c(c3)OCCO4)n2)cc1` here?
The Potency was inconclusive: 6.51 µM [falling, single point].

With `CCCCC(=O)Nc1cc(C(=O)NCCc2ccccc2)ccc1Cl` as the compound, how does the Potency read?
The Potency was inconclusive: 0.058 µM [activator, full curve].

With `CO/N=C(\c1nonc1N)N1CCN(c2ccc(Cl)cc2[N+](=O)[O-])CC1` as the compound, how does the Potency read?
Its Potency is inconclusive: 9.2 µM [falling, partial curve].

Which Potency does the source give for `Cc1cc2c(cc1NS(=O)(=O)c1ccc(NC(=O)CC(C)C)cc1)n(C)c(=O)c(=O)n2C` here?
The Potency was inconclusive: 29.1 µM [falling, single point].

For `O=C(Nc1ccc([N+](=O)[O-])cc1)c1ccccc1F`, which Potency is on record?
Its Potency is inconclusive: 20.6 µM [activator, partial curve, poor fit].

With `OCCNc1ncnc2c1sc1nc(N3CCOCC3)c3c(c12)CCC3` as the compound, how does the Potency read?
The Potency was inconclusive: 7.31 µM [falling, partial curve, poor fit].

For `Cc1ccccc1C(=O)Nc1ccc(S(=O)(=O)Nc2onc(C)c2C)cc1`, which Potency is on record?
The Potency was inconclusive: 29.1 µM [falling, single point].

For `CCc1ccccc1NC(=O)CSc1ncc2c(n1)-c1cc(Cl)ccc1N(Cc1ccccc1)S2(=O)=O`, which Potency is on record?
Its Potency is inconclusive: 1.84 µM [activator, partial curve, poor fit].

Which Potency does the source give for `COc1ccc(S(=O)(=O)N2CCCCCC2)cc1C(=O)OCc1cccc(OC)c1OC` here?
The Potency was inconclusive: 23.1 µM [falling, single point].

With `O=C(Nc1ccc(Cl)cc1)Nc1nc(-c2sccc2Br)cs1` as the compound, how does the Potency read?
The Potency was inconclusive: 7.31 µM [activator, partial curve, poor fit].

For `COc1ccc(C2=NS(=O)(=O)N(C)C(C(=O)N3CCN(C)CC3)=C2)cc1`, which Potency is on record?
Its Potency is “inactive”.

For `COc1ccc(NC(=S)NNc2ccc([N+](=O)[O-])cc2S(=O)(=O)Nc2ccc(C)cc2C)cc1`, which Potency is on record?
The Potency was inconclusive: 16.4 µM [falling, single point].

With `CCCCN(CCCNC(=O)c1ccc(CS(=O)(=O)c2c(Cl)cccc2Cl)o1)Cc1ccccc1` as the compound, how does the Potency read?
Its Potency is inconclusive: 6.51 µM [activator, partial curve, poor fit].

Which Potency does the source give for `CC(NC(=O)CCC1COc2ccccc2O1)c1ccccc1` (stereo not drawn) here?
The Potency was inconclusive: 0.103 µM [falling, full curve, poor fit].

For `Cc1ccc(-c2nc(N)sc2CC(=O)OCC(=O)NCCC(C)C)cc1`, which Potency is on record?
The Potency was inconclusive: 0.0731 µM [falling, partial curve, poor fit].

Which Potency does the source give for `Cc1c(C(=O)OCC2CCCCC2)[nH]c2c1C(=O)CC(c1ccccc1Cl)C2` (stereo not drawn) here?
Its Potency is “inactive”.

With `CCOC(=O)c1c(-c2ccccc2)oc2ccc(O)c(CN3CCOCC3)c12` as the compound, how does the Potency read?
The Potency was inconclusive: 8.2 µM [falling, partial curve].

With `CCCC(=O)Nc1nnc(SCC)s1` as the compound, how does the Potency read?
Its Potency is “inactive”.

Which Potency does the source give for `COc1ccccc1N1CCN(C(=O)CCC(=O)N2CCN(c3ccccc3OC)CC2)CC1` here?
Its Potency is “inactive”.

For `Cc1cccc2sc(NC(=O)CCNS(=O)(=O)c3cccs3)nc12`, which Potency is on record?
Its Potency is inconclusive: 13 µM [falling, partial curve, poor fit].

With `N#CC1=C(N)C(C#N)(C#N)C(c2cccnc2)C2CN(C(=O)OCc3ccccc3)CC=C12` (stereo not drawn) as the compound, how does the Potency read?
Its Potency is inconclusive: 29.1 µM [falling, single point].

With `CCOc1ccccc1NC(=O)Cn1c(=O)n(-c2ccc(C)c(C)c2)c(=O)c2oc3ccccc3c21` as the compound, how does the Potency read?
Its Potency is “inactive”.

For `CC1CCN(C(=O)c2ccc(CSc3ccc(Cl)cc3)cc2)CC1`, which Potency is on record?
Its Potency is inconclusive: 14.6 µM [falling, partial curve, poor fit].

Which Potency does the source give for `Cc1[nH]c2ccccc2c1SCc1nnc(SCc2ccccc2)n1C` here?
Its Potency is active: 25.9 µM.

For `Cc1ccc2c(c1)nnn2C1CCN(S(=O)(=O)c2ccc3ccccc3c2)CC1`, which Potency is on record?
The Potency was inconclusive: 18.4 µM [falling, single point].

For `O=C(OC(C(=O)c1c[nH]c2ccccc12)c1ccccc1)c1cnccn1` (stereo not drawn), which Potency is on record?
Its Potency is inconclusive: 11.6 µM [falling, partial curve, poor fit].

With `CC(C)CNC(C(=O)Nc1ccc([N+](=O)[O-])cc1Br)c1ccccc1` (stereo not drawn) as the compound, how does the Potency read?
The Potency was inconclusive: 25.9 µM [falling, single point].

With `O=S(=O)(c1ccc2ccccc2c1)N1CCN(S(=O)(=O)c2c(F)cccc2F)CC1` as the compound, how does the Potency read?
Its Potency is inconclusive: 14.6 µM [activator, partial curve].

Which Potency does the source give for `COc1ccccc1NC(=O)Cn1nc2c3cc(F)ccc3n(Cc3cccc(C)c3)cc-2c1=O` here?
The Potency was “inactive”.
